Source: PubChem BioAssay AID743255 (National Center for Advancing Translational Sciences (NCATS), 2014)
The whole screen tested about 390,000 compounds, of which about 910 (0.23%) were called active. The shares of active, inactive and inconclusive entries below differ from those in the screen. Calls come from the whole dose curve; as a rule, active = well fitted inhibition curve with a large enough effect; inconclusive = small, poorly fitted or top-dose-only effect; inactive = no such curve, though single readings can be large or run the other way. A potency beside an inconclusive call is a rough fit, not a confirmed value.

The chains behind the UniProt entries cited, without tags or fusion partners. Where a name states a change or a piece, a line headed by the entry shows the natural chain unless it says otherwise.
UniProt O94782: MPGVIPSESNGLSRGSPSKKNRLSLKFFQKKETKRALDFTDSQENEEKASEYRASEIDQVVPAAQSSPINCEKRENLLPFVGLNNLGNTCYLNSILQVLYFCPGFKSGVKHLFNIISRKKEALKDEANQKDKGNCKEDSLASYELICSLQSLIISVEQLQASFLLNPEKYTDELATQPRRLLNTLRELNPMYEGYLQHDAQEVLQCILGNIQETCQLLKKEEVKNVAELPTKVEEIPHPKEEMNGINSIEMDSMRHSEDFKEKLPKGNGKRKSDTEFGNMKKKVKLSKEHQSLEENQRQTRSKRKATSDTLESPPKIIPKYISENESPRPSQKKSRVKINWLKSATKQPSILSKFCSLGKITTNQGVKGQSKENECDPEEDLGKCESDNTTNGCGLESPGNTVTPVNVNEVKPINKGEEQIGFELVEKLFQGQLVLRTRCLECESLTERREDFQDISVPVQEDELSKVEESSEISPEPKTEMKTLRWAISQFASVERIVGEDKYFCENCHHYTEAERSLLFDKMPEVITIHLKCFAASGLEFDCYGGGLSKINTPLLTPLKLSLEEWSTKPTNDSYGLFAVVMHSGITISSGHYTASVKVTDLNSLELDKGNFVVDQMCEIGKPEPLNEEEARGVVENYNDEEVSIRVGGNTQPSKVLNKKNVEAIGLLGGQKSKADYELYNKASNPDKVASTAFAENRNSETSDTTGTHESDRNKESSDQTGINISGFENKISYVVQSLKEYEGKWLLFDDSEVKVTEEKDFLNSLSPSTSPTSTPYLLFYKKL

target: Ubiquitin carboxyl-terminal hydrolase 1 (Homo sapiens) (UniProt O94782); assay: Inhibitors of USP1/UAF1: Primary Screen; details: recombinant USP1/UAF1, Ub-Rhodamine cleavage fluorescence; activity change, negative = inhibition: at 57.1 µM (top of the series); note: nearly all actives have a fitted effect of over 60% in size
Method in brief: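 High-throughput fluorogenic screen: 1nM USP1/UAF1 complex, Ub-Rho substrate 150nM final, 50mM HEPES pH 7.8 with 0.5mM EDTA, 0.1 mg/ml BSA, 1mM TCEP and 0.01% Tween-20.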
% is set by controls: 0 for no effect and ±100 for the full control effect; potency is the fitted concentration of half-maximal effect.

Structure (SMILES) | Potency | activity change, negative = inhibition
Cc1ccc(-c2ccc(=O)n(CC(=O)NCC3COCCO3)n2)cc1 (stereo unspecified) | inconclusive: 4.47 µM [inhibitor, single point] | –
COC(=O)c1cn(CC(=O)N2C(C)CCCC2C)c2ccccc12 (stereo unspecified) | – | inactive: -8.12%
CC(=O)Nc1cccc(N/C(N)=N/c2nc(C)cc(C)n2)c1 | – | inactive: -3.64%
CCN(CC)S(=O)(=O)c1ccc(NC2c3ncccc3C(=O)N2Cc2ccccc2)cc1 (stereo unspecified) | – | inactive: -22.5%
COc1ccccc1-c1nn(Cc2ccccc2)cc1/C=C/C(=O)O | inconclusive: 35.5 µM [inhibitor, partial curve] | –
Cc1cccc(NC(=O)N2CCC(CN3CCCCCC3)CC2)c1C | inconclusive: 44.7 µM [inhibitor, partial curve, poor fit] | –
C/C(=C/CCC(C)(O)C1CC[C@@]2(C)[C@@H]3CC=C4[C@@H](CC[C@H](O[C@H]5O[C@@H](CO)[C@H](O)[C@@H](O)[C@@H]5O)C4(C)C)[C@]3(C)C(=O)C[C@]12C)CO[C@@H]1O[C@H](CO)[C@@H](O)[C@H](O)[C@H]1O (stereo partly specified) | inconclusive: 56.2 µM [inhibitor, partial curve, poor fit] | –
Cc1c(N=Cc2c(O)n(Cc3ccco3)c(=O)c3ccccc23)c(=O)n(-c2ccccc2)n1C | inconclusive: 15.8 µM [inhibitor, partial curve] | –
COc1cc(OC)c(NC(=O)c2cc(CN3CCOCC3)on2)cc1Cl | inconclusive: 44.7 µM [inhibitor, partial curve, poor fit] | –
COc1ccc(Cn2nnnc2C(C(C)C)N2CCc3ccccc32)cc1 (stereo unspecified) | inconclusive: 1.12 µM [inhibitor, full curve, poor fit] | –
O=C(CCc1ccccc1F)N1CCN(c2ccc(C(F)(F)F)cn2)CC1 | inconclusive: 50.1 µM [inhibitor, partial curve, poor fit] | –
CCCSc1nc2c(cnn2-c2ccc(C)c(C)c2)c(=O)[nH]1 | inconclusive: 35.5 µM [inhibitor, partial curve, poor fit] | –
CCOc1cccc(C2c3c(oc4ccc(F)cc4c3=O)C(=O)N2CCc2ccc(OC)cc2)c1 (stereo unspecified) | – | inactive: -18%
COc1cc2ccccc2cc1C(=O)NC(=S)Nc1cccc(C(=O)O)c1 | – | inactive: -25%
CC(=O)[C@H]1CC[C@H]2[C@@H]3C[C@H](C)C4=CC(=O)CC[C@]4(C)[C@H]3[C@@H](O)C[C@]12C | inconclusive: 50.1 µM [inhibitor, partial curve, poor fit] | –
CC(C)OCCCN1CN(S(=O)(=O)c2cccc(Cl)c2)c2nc3ccccc3nc21 | inconclusive: 0.355 µM [inhibitor, full curve] | –
COC(=O)c1sccc1NC(=O)Nc1ccc(F)cc1 | – | inactive: -25.8%
Cc1ccc(-c2c(C(=O)Nc3ccc(F)c(F)c3)oc(=O)c3ccccc23)cc1 | – | inactive: -21%
COc1ccc(-n2c(C)cc(-c3csc(NC(=O)c4ccc(S(=O)(=O)N(C)C)cc4)n3)c2C)cc1 | inconclusive: 44.7 µM [inhibitor, partial curve] | –
CCOC(=O)NNc1ccc2nonc2c1[N+](=O)[O-] | active: 25.1 µM | –
Cc1cccc(N2CCN(C(=O)CSCc3ccc(F)cc3)CC2)c1C | – | inactive: -8.68%
Cc1nn(-c2ccccn2)c2c1-c1nc(N)ncc1CC2 | – | inactive: -18.7%

Structure (SMILES) | Potency | activity change, negative = inhibition
O=C(O)c1ccc(CCCc2ccccc2)cc1 | inconclusive: 8.91 µM [inhibitor, single point] | –
N#Cc1ccc(CN2C(=O)c3ccccc3Sc3ccc(C(=O)OCc4ccco4)cc32)cc1 | inconclusive: 39.8 µM [inhibitor, partial curve, poor fit] | –
Cn1ncc([N+](=O)[O-])c1C(=O)Nc1ccccc1C#N | inconclusive: 1.78 µM [inhibitor, full curve, poor fit] | –
CCN(CCCCN1C(=O)c2ccccc2C1=O)c1ccc2c(c1)C(=O)N(C)C2=O | inconclusive: 35.5 µM [inhibitor, partial curve, poor fit] | –
CC(=O)NCCNc1nc2c(S(=O)(=O)c3ccc(C)c(C)c3)nnn2c2ccc(Cl)cc12 | inconclusive: 50.1 µM [inhibitor, single point] | –
CC(C)c1nc2ccc(C(=O)NCCCN3CCN(c4ccccc4F)CC3)cc2o1 | inconclusive: 6.31 µM [inhibitor, single point] | –
CC(=O)N1CCc2cc(N=NC3=C(O)CCCC3=O)ccc21 | inconclusive: 44.7 µM [inhibitor, partial curve] | –
COc1ccc(NC(=O)c2cc(-c3ccco3)nc3ccccc23)cc1S(=O)(=O)N1CCOCC1 | inconclusive: 31.6 µM [inhibitor, partial curve] | –
CSc1ccccc1NC(=O)COC(=O)Cc1cccs1 | inconclusive: 50.1 µM [inhibitor, partial curve, poor fit] | –
C[C@@H]1CCCCO[C@H](CN(C)C(=O)Nc2ccc(F)cc2)[C@@H](C)CN([C@H](C)CO)C(=O)c2cc(N(C)C)ccc2O1 | inconclusive: 79.4 µM [inhibitor, partial curve, poor fit] | –
Cc1ccc(C(=O)c2cc(C)sc2N)cc1 | inconclusive: 5.62 µM [inhibitor, single point] | –
CC(=O)Nc1ccc(NC2CCCCC2NS(=O)(=O)c2ccc(Cl)cc2)cc1 (stereo unspecified) | inconclusive: 11.2 µM [inhibitor, full curve, poor fit] | –
CN1C(=O)/C(=C/c2coc3ccc(O)cc3c2=O)SC1=S | – | inactive: 2.18%
Cc1ccc(C)c(NC(=O)CN2C(=O)COc3ccc(Cl)cc32)c1 | – | inactive: -10.7%
Cc1c(C2=CCN(S(=O)(=O)c3ccc(CC(C)C)cc3)CC2)c2ccccc2n1CC(=O)N1CCCC1 | inconclusive: 50.1 µM [inhibitor, partial curve, poor fit] | –
CCN(CC(=O)Nc1cc(Cl)ccc1C)C(=O)COc1ccccc1F | inconclusive: 4.47 µM [inhibitor, partial curve] | –
Cc1cccnc1Nc1nc(-c2ccc(O)c(O)c2)cs1 | inconclusive: 44.7 µM [inhibitor, partial curve, poor fit] | –
COc1ccc(C(=O)c2c(N)sc3c2CCN(C)C3)cc1 | inconclusive: 35.5 µM [inhibitor, partial curve] | –
CCOC(=O)c1c(NC(C)=O)sc2c(OCC(O)CNC(C)(C)C)c(Br)ccc12 (stereo unspecified) | – | inactive: -21.7%
CC(C)c1ccc(S(=O)(=O)/N=C2/C=C(Sc3ncn[nH]3)C(=O)c3ccccc32)cc1 | active: 1.78 µM | –
Cc1ccc(-n2c(N)c(C(=O)Nc3ccccc3F)sc2=S)cc1C | – | inactive: -15%
COc1cccc(NC(=O)C(=O)N/N=C/c2cc(C)n(-c3ccc(Cl)c(Cl)c3)c2C)c1 | inconclusive: 35.5 µM [inhibitor, single point] | –

Single values from the entries so far.
In activity change, negative = inhibition, CN1C(=O)/C(=C/c2coc3ccc(O)cc3c2=O)SC1=S is entered as inactive: 2.18%
In Potency, CC(C)c1ccc(S(=O)(=O)/N=C2/C=C(Sc3ncn[nH]3)C(=O)c3ccccc32)cc1 is entered as active: 1.78 µM

Next part

Structure (SMILES) | Potency | activity change, negative = inhibition
CCOC(=O)c1ccc2c(c1)n(CCO)c(C)[n+]2CC | – | inactive: -4.44%
CC(=O)Nc1sc(NC(=O)c2ccco2)nc1-c1cccs1 | inconclusive: 5.01 µM [inhibitor, partial curve] | –
CCCN(CCC)C(=O)c1cc([N+](=O)[O-])cc2c1-c1ccc([N+](=O)[O-])cc1C2=C(C#N)C#N | inconclusive: 35.5 µM [inhibitor, partial curve] | –
Cn1ncc2c(N3CCN(c4ccc(Cl)c(Cl)c4)CC3)ncnc21 | – | inactive: -12.4%
CCN(CC)c1ccc(C(=O)O)cc1 | – | inactive: 3.4%
O=C1CCCC2=C1C(c1ccc(Br)cc1)c1c([nH]c(=S)[nH]c1=O)N2 (stereo unspecified) | – | inactive: -19%
Cc1ccc(NC(=O)Cn2c(=O)n(CCCCC(=O)NCCc3ccccc3)c(=O)c3ccccc32)c(C)c1 | – | inactive: -9.42%
O=C1CCCC(NCCCCCCNC2=C([N+](=O)[O-])C(=O)CCC2)=C1[N+](=O)[O-] | – | inactive: -23.8%
Cc1nn2c(=O)cc(COC(=O)c3ccc(NC(=O)C4CCCCC4)cc3)nc2s1 | inconclusive: 11.2 µM [inhibitor, full curve, poor fit] | –
Cc1onc(-c2c(Cl)cccc2Cl)c1COC(=O)c1ccc([N+](=O)[O-])cc1 | inconclusive: 8.91 µM [inhibitor, single point] | –
CCN1CCN(C2=C(NS(=O)(=O)c3ccc(C)cc3)C(=O)c3ccccc3C2=O)CC1 | inconclusive: 28.2 µM [inhibitor, partial curve] | –
O=C(NCc1cccc(Cl)c1)c1ccc(NC(=O)N2CC3CCCN3c3ccccc32)cc1 (stereo unspecified) | – | inactive: -18.4%
COc1ccccc1CNC(=O)CN(C)S(=O)(=O)c1cccc2cccnc12 | – | inactive: -4.42%
CCOc1ccc(-c2nc(Cn3c(=O)cc(-c4ccccc4)c4c(C)nn(C)c43)c(C)o2)cc1 | – | inactive: -20.5%
O=[N+]([O-])c1cc(-c2ccccc2)cc([N+](=O)[O-])c1O | inconclusive: 17.8 µM [inhibitor, partial curve] | –
Cc1cc(O)c(C(=O)/C=C/c2c(F)c(F)c(F)c(F)c2F)c(=O)o1 | inconclusive: 50.1 µM [inhibitor, partial curve, poor fit] | –
CC(C)Oc1ccc(C(=O)N2CCN(CCc3ccccn3)CC2)cc1 | inconclusive: 0.562 µM [inhibitor, full curve, poor fit] | –
COc1ccc(CCn2c(C)c(C(C)=O)c(C(C)=O)c2C)cc1OC | – | inactive: -15.1%
CCc1nc(SCc2ccccn2)[nH]c(=O)c1C | inconclusive: 5.62 µM [inhibitor, partial curve] | –
CCCN1C(=O)CC(c2ccco2)Sc2ccccc21 (stereo unspecified) | – | inactive: -12.8%
COc1ccc(Br)cc1C(C[N+](=O)[O-])c1c(N)n(C)c(=O)n(C)c1=O (stereo unspecified) | – | inactive: 4.14%
CC(NCc1ccc2c(c1)OCO2)C(=O)NC1CCCCC1 (stereo unspecified) | inconclusive: 35.5 µM [inhibitor, partial curve] | –

Among those listed so far, ten contain a Cl atom.
Structure (SMILES) | Potency | activity change, negative = inhibition
COc1cc(OC)c(NC(=O)c2cc(CN3CCOCC3)on2)cc1Cl | inconclusive: 44.7 µM [inhibitor, partial curve, poor fit] | –
CC(C)OCCCN1CN(S(=O)(=O)c2cccc(Cl)c2)c2nc3ccccc3nc21 | inconclusive: 0.355 µM [inhibitor, full curve] | –
CC(=O)NCCNc1nc2c(S(=O)(=O)c3ccc(C)c(C)c3)nnn2c2ccc(Cl)cc12 | inconclusive: 50.1 µM [inhibitor, single point] | –
CC(=O)Nc1ccc(NC2CCCCC2NS(=O)(=O)c2ccc(Cl)cc2)cc1 (stereo unspecified) | inconclusive: 11.2 µM [inhibitor, full curve, poor fit] | –
Cc1ccc(C)c(NC(=O)CN2C(=O)COc3ccc(Cl)cc32)c1 | – | inactive: -10.7%
CCN(CC(=O)Nc1cc(Cl)ccc1C)C(=O)COc1ccccc1F | inconclusive: 4.47 µM [inhibitor, partial curve] | –
COc1cccc(NC(=O)C(=O)N/N=C/c2cc(C)n(-c3ccc(Cl)c(Cl)c3)c2C)c1 | inconclusive: 35.5 µM [inhibitor, single point] | –
Cn1ncc2c(N3CCN(c4ccc(Cl)c(Cl)c4)CC3)ncnc21 | – | inactive: -12.4%
Cc1onc(-c2c(Cl)cccc2Cl)c1COC(=O)c1ccc([N+](=O)[O-])cc1 | inconclusive: 8.91 µM [inhibitor, single point] | –
O=C(NCc1cccc(Cl)c1)c1ccc(NC(=O)N2CC3CCCN3c3ccccc32)cc1 (stereo unspecified) | – | inactive: -18.4%
